Test results: publication PMC4716839
For some of these results: A negative result means that nothing was seen under these conditions. For some of these results: At least one verdict was read from the data and is not stated in words by the source. For some of these results: Protein sequences can lack the tags named with them. For some of these results: For at least one entry, the source does not settle the construct or the ends of the probe.

Chains of the proteins cited; added tags and fusions are not shown. A line that says so, or that is headed by a name, gives the form on record, which may keep a tag or linker. Residues count along the entry.
UniProt Q8VEE4, 191-431: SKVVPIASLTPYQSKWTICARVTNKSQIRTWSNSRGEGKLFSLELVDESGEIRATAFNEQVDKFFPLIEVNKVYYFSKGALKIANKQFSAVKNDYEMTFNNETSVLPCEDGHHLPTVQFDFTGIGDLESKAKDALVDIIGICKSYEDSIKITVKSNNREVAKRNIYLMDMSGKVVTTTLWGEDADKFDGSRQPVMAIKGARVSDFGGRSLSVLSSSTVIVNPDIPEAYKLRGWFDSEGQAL
Rpa heterotrimer (Rpa70/Rpa32/Rpa14) (Mus musculus), one chain, as listed by the source, chain 3 of 2: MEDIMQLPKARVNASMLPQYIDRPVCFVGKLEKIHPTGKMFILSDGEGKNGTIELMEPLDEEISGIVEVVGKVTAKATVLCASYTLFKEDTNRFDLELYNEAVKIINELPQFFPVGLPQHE
Rpa heterotrimer (Rpa70/Rpa32/Rpa14) (Mus musculus), one chain, as listed by the source, chain 2 of 2: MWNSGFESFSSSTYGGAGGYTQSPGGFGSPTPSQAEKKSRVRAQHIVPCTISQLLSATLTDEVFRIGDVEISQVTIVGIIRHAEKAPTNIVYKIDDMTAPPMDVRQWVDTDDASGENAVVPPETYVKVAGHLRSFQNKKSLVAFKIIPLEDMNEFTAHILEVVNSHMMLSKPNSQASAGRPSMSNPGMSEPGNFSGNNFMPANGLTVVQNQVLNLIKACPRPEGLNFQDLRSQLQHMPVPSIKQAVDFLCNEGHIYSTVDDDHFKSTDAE

Columns and labels:
[1] = biological target: Rpa70AB (DBD-A and DBD-B) (Mus musculus) (UniProt Q8VEE4); assay: competition (GST pull-down); settings: DNA abolishes GST-Dna2 OB binding, stoichiometry dependent; EMSA: 20 mM Tris-HCl pH 8.0, 80 mM NaCl, 0.3 mM TCEP, 0.2 mg/mL BSA, 2% glycerol, on ice 30 min, 0.075 or 0.3 nM 32P-DNA; 4% native PAGE, 1x TB, 4 C; recombinant protein; residues 191-431; protein details: 6-His-SUMO removed; single-stranded DNA
[2] = biological target: T1, Rpa70N (OBN) (Mus musculus) (UniProt Q8VEE4); assay: competition (GST pull-down); settings: DNA does not affect GST-Dna2 alpha1 binding, text states lack of ssDNA affinity; EMSA: 20 mM Tris-HCl pH 8.0, 80 mM NaCl, 0.3 mM TCEP, 0.2 mg/mL BSA, 2% glycerol, on ice 30 min, 0.075 or 0.3 nM 32P-DNA; 4% native PAGE, 1x TB, 4 C; recombinant protein; residues 1-122; protein details: 6-His-SUMO removed; single-stranded DNA
T1 sequence (looked up): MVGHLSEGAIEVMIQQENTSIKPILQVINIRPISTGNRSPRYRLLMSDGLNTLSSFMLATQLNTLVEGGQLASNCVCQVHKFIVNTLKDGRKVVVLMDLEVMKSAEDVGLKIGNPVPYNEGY

[3] = biological target: T2, Dna2 OB domain (UniProt Q6ZQJ5); assay: EMSA; settings: no detectable binding up to 80 uM, smeary shift of ~4% of DNA at 160 uM; EMSA: 20 mM Tris-HCl pH 8.0, 80 mM NaCl, 0.3 mM TCEP, 0.2 mg/mL BSA, 2% glycerol, on ice 30 min, 0.075 or 0.3 nM 32P-DNA; 4% native PAGE, 1x TB, 4 C; recombinant protein; residues 21-122; single-stranded DNA
T2 sequence (looked up): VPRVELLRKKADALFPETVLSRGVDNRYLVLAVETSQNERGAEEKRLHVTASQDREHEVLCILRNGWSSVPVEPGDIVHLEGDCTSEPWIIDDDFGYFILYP

[4] = test system: Rpa heterotrimer (Rpa70/Rpa32/Rpa14) (Mus musculus); assay: competition (GST pull-down); settings: GST-Dna2 alpha1OB (1-122); EMSA: 20 mM Tris-HCl pH 8.0, 80 mM NaCl, 0.3 mM TCEP, 0.2 mg/mL BSA, 2% glycerol, on ice 30 min, 0.075 or 0.3 nM 32P-DNA; 4% native PAGE, 1x TB, 4 C; recombinant protein; protein details: cleavable N-terminal GST on Rpa32; single-stranded DNA; scale: fold reduction of Rpa bound to GST-alpha1OB at one molar equivalent of DNA

TTTTTTTT [(dT)8]
binding result [1]: binds | binding result [2]: no binding

TTTTTTTTTTTTTTTTTTTT [(dT)20]
Kd [3]: > 80 µM

TTTTTTTTTTTTTTTTTTTTTTTT [(dT)24]
binding signal [4]: 4
